Where a name gives a salt, the structure may show the parent alone. Some of the results follow. Many values rest on one well or one pass, so single values are uncertain.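 Hepatocyte-like cells derived from human stem cells with CRISPR-disrupted DGUOK model liver mtDNA depletion syndrome. Each well's ATP signal was scored against other wells on the same plate, and drugs scoring 3 or above were primary hits.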 Residues, ends and D or L forms follow the SMILES beside them.

This experiment concerns DGUOK Δ14/Δ5 iPSC-derived hepatocyte-like cells (SV20). Briefly: ATP level (CellTiter-Glo luminescence) Z score relative to plate distribution, under 2-DG glycolysis block; higher = more cellular ATP (rescue of mitochondrial ATP production). As to conditions: 5 µM; treatment time: day 15 to day 20 of differentiation (5 days); 2-deoxy-D-glucose: 20 mM for 24 h before assay.
For the compound `O=C(O)c1ccc[n+]([O-])c1`, the ATP level was inactive: 0.48.
Take `CC(C)(CO)[C@@H](O)C(=O)NCCC(=O)O` [PANTOTHENIC ACID(d) Na salt]: the ATP level was inactive: -2.44.
`CCN(CCCCOC(=O)c1ccc(OC)c(OC)c1)C(C)Cc1ccc(OC)cc1` (stereo not given): the ATP level is inactive: -0.302.
Take `Cc1cc(C(C)(C)C)cc(C)c1CC1=NCCN1`: the ATP level was inactive: 0.35.
With `CCN(CC)C(=O)C1(c2ccccc2)CC1CN` (stereo not given), the ATP level was inactive: 1.74.
With `CC#CCn1c(N2CCC[C@@H](N)C2)nc2c1c(=O)n(Cc1nc(C)c3ccccc3n1)c(=O)n2C`, the ATP level is inactive: 1.16.
Turning to `CCN(CC)CCOCCOC(=O)C1(c2ccccc2)CCCC1`, the ATP level was inactive: -0.396.
On to `Cc1cc(O)c2c(c1O)C(=O)c1c(O)cc(C)c(O)c1C2=O`, for which the ATP level was inactive: 0.375.
Take `COc1cc(OC)c2ccc(=O)oc2c1`: the ATP level is inactive: -0.273.
Turning to `N[C@H]1CONC1=O`, the ATP level was inactive: 2.47.
With `CCCCC1C(=O)N(c2ccccc2)N(c2ccc(O)cc2)C1=O` (stereo not given), the ATP level is inactive: 1.55.
On to `O=C(CCBr)N1CCN(C(=O)CCBr)CC1`, for which the ATP level was inactive: -2.33.
In the case of `O=c1c(O)c(-c2ccc(O)cc2)oc2cc(O)cc(O)c12`, the ATP level was inactive: 1.18.
As for `O=C(O)c1cc(=O)c(O)c2c(O)c(O)c(O)cc2c1`, the ATP level was inactive: 0.583.
As to `CC(=O)Nc1ccc(OC(=O)c2ccccc2O)cc1`, the ATP level is inactive: -5.96.
Turning to `COc1cc2nc(N3CCN(C(=O)C4COc5ccccc5O4)CC3)nc(N)c2cc1OC` (stereo not given), the ATP level was inactive: 2.17.
For the compound `COC(=O)C[C@H]1C2(C)CC34OC5(C)O[C@@]6([C@H](OC(C)=O)C(OC(C)=O)[C@]7(C)C(/C(=C(/O)C(C)C)C(=O)O[C@H]7c7ccoc7)[C@@]6(O5)[C@H](OC(C)=O)[C@@]3(O)C2OC(=O)C(C)C)[C@]14C` (stereo not given in full), the ATP level is inactive: 0.566.
Next, `COC(=O)C1=CO[C@@H](O[C@@H]2O[C@H](CO)[C@@H](O)[C@H](O)[C@H]2O)[C@H]2[C@@H]1C(=O)C[C@@H]2C`: inactive: 2.22; `N=C(N)SCCN`: inactive: -4.88.
Next, `CCCCC1C(=O)N(c2ccccc2)N(c2ccccc2)C1=O`: inactive: 1.12; `O=C(O)/C=C/C=C/c1ccccc1`: inactive: -0.397.
As to `C#C[C@]1(OC(C)=O)CC[C@H]2[C@@H]3CCC4=CC(=O)CC[C@@H]4[C@H]3CC[C@@]21C`, the ATP level was inactive: 0.728.
Next, `CCCCOC(=O)c1ccc(O)cc1`: inactive: 1.21.
As for `COCCCOc1cc(C[C@@H](C[C@H](N)[C@@H](O)C[C@H](C(=O)NCC(C)(C)C(N)=O)C(C)C)C(C)C)ccc1OC`, the ATP level was inactive: 1.58.
For `CCCc1nc2c(C)cc(-c3nc4ccccc4n3C)cc2n1Cc1ccc(-c2ccccc2C(=O)O)cc1` the value was active: 3.08; for `CC(=O)/N=c1/sc(S(N)(=O)=O)nn1C`, active: 3.51; for `CC1=CC(=O)c2ccccc2C1=O`, inactive: 0.182.
In the case of `N=C(N)N1CCc2ccccc2C1`, the ATP level is inactive: 2.81.
For the compound `COc1ccc(-c2cc(=O)c3c(O)c(OC)c(OC)c(OC)c3o2)cc1OC`, the ATP level is inactive: 0.477.
With `COc1cc(C(C)=O)cc(OC)c1O`, the ATP level was inactive: 1.63.
Next, `COCCCOc1ccnc(C[S+]([O-])c2nc3ccccc3[nH]2)c1C` (stereo not given): inactive: -1.68.
Regarding `CC(C)=CCC/C(C)=C\CO`, the ATP level is inactive: -1.09.
Next, `O=C(O)Cc1cc(I)c(Oc2ccc(O)c(I)c2)c(I)c1`: active: 3.68; `CNCC[C@@H](Oc1ccccc1C)c1ccccc1`: inactive: 1.21; `COc1cc2c(cc1OC)Cc1cc(OC)c(OC)cc1Cc1cc(OC)c(OC)cc1C2`: inactive: 0.998.
In the case of `N[C@@H](CC(=O)N1CCn2c(nnc2C(F)(F)F)C1)Cc1cc(F)c(F)cc1F`, the ATP level was inactive: 0.809.
For `C[C@@H]1O[C@@H](O[C@H]2[C@H](Oc3cc(O)c4c(c3)O[C@H](c3ccc(O)cc3)CC4=O)O[C@H](CO)[C@@H](O)[C@@H]2O)[C@H](O)[C@H](O)[C@H]1O`, the ATP level was active: 3.01.
For `C=COCC(F)(F)F` the value was inactive: 2.38; for `CC(=O)OCC(=O)[C@@]12OC3(CCCC3)O[C@@H]1C[C@H]1[C@@H]3CCC4=CC(=O)C=C[C@]4(C)[C@@]3(F)[C@@H](O)C[C@@]12C`, inactive: 2.12; for `C[C@@H]1O[C@@H](OC[C@H]2O[C@@H](Oc3c(-c4ccc(O)c(O)c4)oc4cc(O)cc(O)c4c3=O)[C@H](O)[C@@H](O)[C@@H]2O)[C@H](O)[C@H](O)[C@H]1O`, inactive: 1.76.
For `CO/N=C(\C(=O)N[C@@H]1C(=O)N2C(C(=O)O)=C(CSC(=O)c3ccco3)CS[C@H]12)c1csc(N)n1` the value was active: 3.5; for `N=C(N)c1ccc(N=NNc2ccc(C(=N)N)cc2)cc1`, inactive: -11.8; for `C[C@H](CCC(=O)O)[C@H]1CC[C@H]2[C@@H]3C[C@H](O)[C@@H]4C[C@H](O)CC[C@]4(C)[C@H]3CC[C@]12C` [alpha-HYDROXYDEOXYCHOLIC ACID], inactive: 1.02.
Next, `O=C(Nc1ccccc1)OCC(CN1CCCCC1)OC(=O)Nc1ccccc1` (stereo not given): inactive: -5.04; `COc1c(O)cc(O)cc1O`: inactive: 1.73.
Consider `CC[C@@]1(O)C(=O)OCc2c1cc1n(c2=O)Cc2cc3c(CN(C)C)c(O)ccc3nc2-1`, for which the ATP level was active: 3.77.
`Nc1nnc(-c2cccc(Cl)c2Cl)c(N)n1`: the ATP level is inactive: 0.786.
For `O=C(O)/C=C(\CC(=O)O)C(=O)O` the value was inactive: 0.836; for `Nc1nc(=O)[nH]cc1F`, inactive: 0.723; for `Cc1c(C)c2c(c(C)c1O)CCC(C)(CCCC(C)CCCC(C)CCCC(C)C)O2` (stereo not drawn) [alpha-TOCHOPHEROL [4 mM]], inactive: 1.01.
As to `CC(=O)O[C@]1(C(C)=O)CC[C@H]2[C@@H]3C=C(C)C4=CC(=O)CC[C@]4(C)[C@H]3CC[C@@]21C`, the ATP level is inactive: -10.1.
As for `NC[C@H]1O[C@H](O[C@H]2[C@H](O)[C@@H](O[C@H]3O[C@H](CO)[C@@H](O)[C@H](N)[C@H]3O)[C@H](N)C[C@@H]2N)[C@H](N)[C@@H](O)[C@@H]1O`, the ATP level is inactive: 1.67.
Next, `COc1cc(O)c(C(=O)c2ccccc2)cc1O`: active: 4.51; `NC(=O)CC[C@H](NC(=O)[C@@H](N)CO)C(=O)O` (H-Ser-Gln-OH): inactive: -0.226.
Take `C#CC1(O)CC[C@H]2[C@@H]3CCC4=CC(=O)CC[C@@H]4[C@H]3CC[C@@]21CC` (stereo not given in full): the ATP level is inactive: 0.43.
For the compound `O=c1oc2ccccc2cc1O`, the ATP level is inactive: -0.257.
Consider `OCC(O)C(O)C(O)CO` (stereo not given), for which the ATP level was inactive: 0.679.
For the compound `CC1CCC2(OC1)OC1CC3C4CCC5C[C@@H](O)CCC5(C)C4=CCC3(C)C1[C@@H]2C` (stereo partly drawn) [3beta-HYDROXYISOALLOSPIROST-9(11)-ENE], the ATP level was inactive: -1.34.
In the case of `CC(C)(C)NCC(O)COc1cccc2c1CC(O)C(O)C2` (stereo not given), the ATP level is active: 5.97.
Turning to `CN(C)CC(=O)OC[C@@H](O)[C@@H](O)[C@H](O)[C@@H](O)C(=O)O`, the ATP level was inactive: 1.24.
Regarding `Cc1cc(O)cc(O)c1C(=O)O`, the ATP level is inactive: -2.94.
As to `CC[C@H](C)C(=O)O[C@H]1C[C@H](O)C=C2C=C[C@H](C)[C@H](CC[C@@H](O)C[C@@H](O)CC(=O)O)[C@H]21`, the ATP level is inactive: 2.14.
`CC1=C(C(=O)O)N2C(=O)[C@@H](NC(=O)[C@H](N)c3ccccc3)[C@H]2SC1`: the ATP level was inactive: 1.18.
Next, `O=C1C(O)=C(O)C(=O)C(O)=C1O`: inactive: -3.95; `Cc1nccn1CC1CCc2c(c3ccccc3n2C)C1=O` (stereo not given): inactive: -0.654; `NC(=O)c1cc[n+](CC2=C(C(=O)[O-])N3C(=O)[C@@H](NC(=O)Cc4cccs4)[C@H]3SC2)cc1`: inactive: -0.841.
Take `CC(=O)NC[C@H]1CN(c2ccc(N3CCOCC3)c(F)c2)C(=O)O1`: the ATP level was inactive: -4.56.
With `COc1ccc2c(c1)c(CC(=O)OCC(=O)O)c(C)n2C(=O)c1ccc(Cl)cc1`, the ATP level is inactive: 2.47.
For the compound `COc1ccc2cc3[n+](cc2c1OC)CCc1cc2c(cc1-3)OCO2`, the ATP level was inactive: -9.11.
`COc1ccc2c(c1)OC[C@@H](Cc1ccc(OC)c(OC)c1)[C@@H]2O`: the ATP level was inactive: -0.292.
As to `O=C(c1cccnc1)N1CCOCC1`, the ATP level was inactive: 1.01.
Take `OCC(S)CS` (stereo not given): the ATP level is inactive: -10.
`CC(C)=CC1C(C(=O)O)C1(C)C` (stereo not given): the ATP level was inactive: 1.99.
For `COC(=O)C[C@H]1C(C)(C)C(=O)[C@@H]2CC3C4=CC(=O)O[C@@H](c5ccoc5)[C@]4(C)CC[C@@H]3[C@@]1(C)C2=O` (stereo not given in full), the ATP level is inactive: -2.7.
Consider `CC(C)Cn1c(=O)n(C)c(=O)c2nc[nH]c21`, for which the ATP level was inactive: 0.658.
As for `O=C1N=C(O)NC1(c1ccccc1)c1ccccc1`, the ATP level was inactive: 1.45.
Consider `CC1(C)O[C@@H]2[C@@H](CO[C@@]3(COS(N)(=O)=O)OC(C)(C)O[C@@H]23)O1`, for which the ATP level was inactive: -1.49.
For the compound `COc1cc(NS(=O)(=O)c2ccc(N)cc2)nc(OC)n1`, the ATP level was inactive: 1.69.
In the case of `CC[N+](CC)(CC(=O)Nc1c(C)cccc1C)Cc1ccccc1`, the ATP level was active: 5.63.
Next, `CC(=O)O[C@@H]1CC[C@@]2(C)C(C[C@@H](OC(C)=O)[C@@]3(C)C4=CC(=O)O[C@@H](c5ccoc5)[C@]4(C)CCC23)C1(C)C` (stereo partly drawn) [3alpha-ACETOXYDIHYDRODEOXYGEDUNIN]: inactive: 2.37; `Cc1cccc(Nc2ccncc2S(=O)(=O)NC(=O)NC(C)C)c1`: inactive: -4.94.
Regarding `O=C(O)CCCC[C@@H]1CCSS1`, the ATP level was inactive: 1.16.
`CC(=O)O[C@H]1C[C@@H](O)C(C)(C)[C@@H]2C[C@@H](OC(C)=O)[C@]3(C)[C@H](CC[C@@]4(C)[C@@H](c5ccoc5)OC(=O)[C@H]5O[C@@]534)[C@@]12C`: the ATP level is inactive: -2.72.
As to `CC(C)CCC[C@@H](C)[C@H]1CC[C@H]2[C@@H]3CC[C@H]4CC(=O)CC[C@]4(C)[C@H]3CC[C@]12C`, the ATP level was inactive: -0.711.
As to `C=C(C)[C@H]1COc2cc3oc(=O)ccc3cc2O1`, the ATP level is inactive: 2.07.

The record behind these values is the supplement of paper PMC6289059.
